Laboratory results: US20100166741A1
Results are given in words; binding and its absence hold for the method and conditions named. Some entries that bind do so weakly or less than the wild type.

B1: V3-1h (antibody, human IgG1, V domains shown)
VH: EVQLVESGGGLVQPGGSLRLSCAASGFTISSNSIHWVRQAPGKGLEWVAWITPSDGNTDYADSVKGRFTISADTSKNTAYLQMNSLRAEDTAVYYCARRVCYNRLGVCAGGMDYWGQGTLVTVSS
VL: DIQMTQSPSSLSASVGDRVTITCRASQDVSTAVAWYQQKPGKAPKLLIYSASFLYSGVPSRFSGSGSGTDFTLTISSLQPEDFATYYCQQSRITPPTFGQGTKVEIKR
B2: V3-1m (antibody, mouse IgG2a, V domains shown)
VH: EVQLVESGGGLVQPGGSLRLSCAASGFTISSNSIHWVRQAPGKGLEWVAWITPSDGNTDYADSVKGRFTISADTSKNTAYLQMNSLRAEDTAVYYCARRVCYNRLGVCAGGMDYWGQGTLVTVSS
VL: DIQMTQSPSSLSASVGDRVTITCRASQDVSTAVAWYQQKPGKAPKLLIYSASFLYSGVPSRFSGSGSGTDFTLTISSLQPEDFATYYCQQSRITPPTFGQGTKVEIKR

Legend:
mouse BR3 (mouse) [1] = molecular target: T1, mouse BR3 (mouse) (UniProt Q9D8D0); assay: BHK binding assay
T1 sequence (looked up): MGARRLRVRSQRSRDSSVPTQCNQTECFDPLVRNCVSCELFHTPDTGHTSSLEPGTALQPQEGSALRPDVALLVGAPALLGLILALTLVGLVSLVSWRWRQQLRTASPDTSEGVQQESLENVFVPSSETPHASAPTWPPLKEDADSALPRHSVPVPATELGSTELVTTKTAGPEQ

mouse BR3 (mouse) [2] = molecular target: T1, mouse BR3 (mouse); assay: mapping study on mouse BR3

Binder | binding (mouse BR3 (mouse) [1]) | binding (mouse BR3 (mouse) [2])
B1 | binds | –
B2 | binds | binds
